Laboratory results taken from PubChem BioAssay AID248 (DTP/NCI, 2004).
The list shows only some results of the screen, not a fair sample: it gathers tests that were run many times, whatever their T/C, doses with no T/C, and many T/C values between a quarter and a half above the control. Further doses and runs are listed elsewhere. T/C: endpoint of the treated group in % of that of the vehicle group. Some doses have a count of surviving animals in place of a T/C: the source holds a T/C of zero for them, seemingly a mark for toxic or unscored doses. Some doses without a T/C left all or most animals alive at the check, yet need not have been tolerated: the source hardly ever lists a survival T/C far under the control, and the zero likely stands for such cases as well. Survivors were counted at the toxicity check, usually on the fifth day, unless a day is given; later deaths do not show. Schedule codes are those of the source, read here as Q, the interval in days (D) or hours (H), X, the number of doses. Some doses were run more than once; the values are given in rising order. Some schedule codes hold Z or #, which are not explained here. Where survival is the endpoint, the PubChem record calls one and a half times the control and up active, and a quarter to a half above the control has no call in these data; cut-offs in other NCI protocols can differ.

System: L1210 leukemia ip in BDF1 mice, survival T/C
Assay: NCI In Vivo Anticancer Drug Screen. Data for tumor model L1210 Leukemia (intraperitoneal) in B6D2F1 (BDF1) mice
Conditions: T/C endpoint: mean survival time, higher T/C = longer survival
[1] = dose: 200.0 mg/kg/injection, schedule: Q04DX002 (ip), vehicle: saline with Tween-80
[2] = dose: 400.0 mg/kg/injection, schedule: Q04DX002 (ip), vehicle: saline with Tween-80
[3] = dose: 400.0 mg/kg/injection, schedule: Q04DX003 (ip), vehicle: saline with Tween-80
[4] = dose: 400.0 mg/kg/injection, schedule: Q01DX001 (ip), vehicle: saline
[5] = dose: 400.0 mg/kg/injection, schedule: Q04DX002 (ip), vehicle: Klucel (hydroxypropylcellulose) (HPC)

SMILES: CC(C)(C)C#CCCl
- survivor count (dose: 300.0 mg/kg/injection, schedule: Q01DX009 (ip), vehicle: saline): 1 of 6

SMILES: O=[N+]([O-])c1ccc2c(c1)n([O-])c1ccccc1[n+]2=O
- survivor count (dose: 50.0 mg/kg/injection, schedule: Q04DX003 (ip), vehicle: Klucel (hydroxypropylcellulose) (HPC)): 6 of 6
- survivor count (dose: 400.0 mg/kg/injection, schedule: Q01DX001 (ip), vehicle: Klucel (hydroxypropylcellulose) (HPC)): 3 of 6

SMILES: CC(=O)c1sc2sc(C(C)=O)c(NC(=S)Nc3cccc(C(F)(F)F)c3)c2c1NC(=S)Nc1cccc(C(F)(F)F)c1
- T/C (dose: 100.0 mg/kg/injection, schedule: Q04DX002 (ip), vehicle: saline with Tween-80): 86, 88, 91, 98 % of control
- T/C [1]: 92 and 94 % of control
- survivor count [1]: 3 of 3 and 6 of 6
- T/C [2]: 91, 94, 95 % of control
- survivor count [2]: 6 of 6
- survivor count [3]: 3 of 6

SMILES: CCN(CC)CC(O)CNc1ccnc2cc(Cl)ccc12 (stereo not drawn)
- survivor count (dose: 100.0 mg/kg/injection, schedule: Q01DX009 (ip), vehicle: saline with Tween-80): 3 of 6
- survivor count (dose: 200.0 mg/kg/injection, schedule: Q01DX009 (ip), vehicle: saline with Tween-80): 0 of 6
- survivor count (dose: 400.0 mg/kg/injection, schedule: Q01DX009 (ip), vehicle: saline with Tween-80): 0 of 6

SMILES: CCOC(=O)COCc1ccccc1
- T/C (dose: 400.0 mg/kg/injection, schedule: Q04DX003 (ip), vehicle: saline sonified): 129 % of control

SMILES: OC12CC(C(F)(F)F)(C(F)(F)F)OC1(O)CC(C(F)(F)F)(C(F)(F)F)O2 (stereo not drawn)
- survivor count [3]: 0 of 6

SMILES: CC(=O)c1c(C)cc(C)nc1C
- survivor count [4]: 0 of 4

SMILES: O=C(N/N=C/c1ccc(Cl)cc1)Nc1ccccc1
- survivor count (dose: 400.0 mg/kg/injection, schedule: Q01DX009 (ip), vehicle: Klucel (hydroxypropylcellulose) (HPC)): 0 of 6

SMILES: O=P(c1ccccc1)(N1CC1)N1CC1
- survivor count (dose: 60.0 mg/kg/injection, schedule: Q01DX001 (ip), vehicle: saline): 4 of 6
- survivor count (dose: 120.0 mg/kg/injection, schedule: Q01DX001 (ip), vehicle: saline): 0 of 6

SMILES: CSc1nc(Cl)c(Br)c(Sc2nc(N)nc3nc[nH]c23)n1
- survivor count (dose: 100.0 mg/kg/injection, schedule: Q01DX Z (ip), vehicle: methylcellulose (MC)): 3 of 6
- survivor count (dose: 200.0 mg/kg/injection, schedule: Q01DX Z (ip), vehicle: methylcellulose (MC)): 6 of 6

SMILES: C1=C(c2ccccc2)N(C2CCCCC2)C(c2ccccc2)=CN1Cc1ccccc1
- survivor count [5]: 3 of 3

SMILES: COc1ccc(NC(=O)/C=N/O)c(Cl)c1
- survivor count (dose: 100.0 mg/kg/injection, schedule: Q01DX001 (ip), vehicle: carboxymethylcellulose (CMC)): 6 of 6

SMILES: c1nc([N+]23CCC(CC2)CC3)c2[nH]cnc2n1
- survivor count (dose: 100.0 mg/kg/injection, schedule: Q01DX001 (ip), vehicle: saline): 2 of 4
- survivor count (dose: 200.0 mg/kg/injection, schedule: Q01DX001 (ip), vehicle: saline): 0 of 4
- survivor count [4]: 0 of 4

SMILES: O=S(=O)(N=S(CCCl)CCCl)c1ccccc1
- survivor count [5]: 1 of 3

SMILES: O=C(NC(CS(=O)(=O)O)C(=O)O)OCc1ccccc1 (stereo not drawn)
- survivor count (dose: 400.0 mg/kg/injection, schedule: Q04DX003 (ip), vehicle: Klucel (hydroxypropylcellulose) (HPC)): 3 of 6

SMILES: S=C(Nc1ccc(Cl)c(Cl)c1)Sc1ccccc1
- survivor count (dose: 200.0 mg/kg/injection, schedule: Q04DX003 (ip), vehicle: saline with Tween-80): 0 of 3
